PubChem BioAssay AID1259254 – NCATS, 2017
Here is a random part of about 59,000 reagents. Of all reagents, about 1,550 (2.6%) got an active call. 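G2 share is only a proxy for re-replication; each gene was hit by three separate siRNAs, and active genes were retested.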 Raw values vary from plate to plate and are shown uncorrected. Unmarked entries are inactive. The numbers tell different reagents against one gene apart. The record does not give: the amount of reagent.

Test: 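Genome-wide screen for genes that prevent DNA re-replication in cancer cells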 (primary screen)
Cell system: human HCT116 colorectal cancer cells
Reagent: single siRNA against human genes
Time to read-out: 3 days
Detection: 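Nuclei stained with Hoechst and imaged; cell-cycle phase assigned by DNA content; G2 share scaled per plate, non-targeting siRNA 0%, GMNN siRNA 100%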
Scale: G2 robust z-score and G2 cells, % of GMNN control: higher = more G2 cells, more excess DNA replication; raw share of cells in G2: higher = larger share of cells with G2 DNA content
Call rule: 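An siRNA counts as active if its G2 robust z-score lies at least 5 MADs above the screen median; here such calls match roughly 38% of GMNN control or more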

target	reagent no.	G2 robust z-score	G2 cells, % of GMNN control	raw share of cells in G2 (%)
ZNF274	1	-0.977	-3.91	4.25
ZNF274	2	-0.681	-1.82	2.58
ZNF274	3	-0.299	0.862	3.81
UBIAD1	1	0.439	6.06	6.17
UBIAD1	2	-0.154	1.88	5.26
UBIAD1	3	1.36	12.5	7.2
FUT3	1	6.89 (active)	51.5	23.9
FUT3	2	-0.99	-4	3.74
FUT3	3	0.433	6.01	5.8
ADA	1	0.763	8.34	7.1
ADA	2	-0.737	-2.22	3.96
ADA	3	-1.17	-5.25	3.21
FAM53C	1	1.34	12.4	7.28
FAM53C	2	-1.28	-6.05	1.44
FAM53C	3	-0.571	-1.05	3.83

Reagents above called active:
target	reagent no.	G2 robust z-score	G2 cells, % of GMNN control	raw share of cells in G2 (%)
FUT3	1	6.89 (active)	51.5	23.9

Continued.
target	reagent no.	G2 robust z-score	G2 cells, % of GMNN control	raw share of cells in G2 (%)
ARHGAP27	1	0.224	4.54	4.2
ARHGAP27	2	1.7	14.9	8.94
ARHGAP27	3	0.0793	3.53	4.14
ARHGAP27	4	0.239	4.65	6.4
ARHGAP27	5	-0.528	-0.75	4.39
ARHGAP27	6	0.0402	3.25	7.51
IFT81	1	-0.892	-3.31	2.59
IFT81	2	1.59	14.1	9.89
IFT81	3	-0.156	1.87	3.84
MVD	1	-1.03	-4.28	1.78
MVD	2	0.632	7.41	8.41
MVD	3	0.173	4.19	6.98
BCLAF3	1	-0.112	2.18	4.37
BCLAF3	2	0.348	5.42	4.98
BCLAF3	3	0.247	4.71	4.7
